Data source: PubChem BioAssay AID1159578 (Peter MacCallum Cancer Centre, 2015)
The deposit covers about 18,000 reagents; this is an unselected part. Over the whole deposit, about 1,030 (5.7%) got an active call. 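Inactive calls also include pools with fewer than 3300 nuclei, whose migration was not assessed.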 Raw values are not corrected between plates. Unmarked entries are inactive. Reagent sequences are not shown.

- Aim: 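Knock-downs that alter how fast lymphatic endothelial cells migrate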 (primary screen)
- Cell system: human lymphatic endothelial cells
- Reagent: siRNA pool against human genes, 40 nM
- Time to read-out: 48 h after transfection
- Measured: 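Cells stained with dye and imaged after a scratch; covered wound area and nuclei counted, duplicates averaged, migration set against mock wells and turned into a robust z-score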
- Direction: migration robust z-score: higher = faster migration into the scratch; migration relative to mock: higher = more scratch area covered than mock; nuclei per well: higher = more cells in the well
- Call rule: 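Pools averaging fewer than 3300 nuclei are never called; remaining pools count as changed when migration robust z lies outside -2 to 2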
- Meaning of the calls: active = migration changed; inactive = no migration change, or too few cells

target gene | migration robust z-score | migration class with cell-count check | migration relative to mock | nuclei per well, duplicate mean
TEDDM1 | -0.99 | migration z between -2 and 2; enough cells | 0.62 | 6592
MSMB | -0.29 | migration z between -2 and 2; enough cells | 0.81 | 5662
QTMAN | 2.27 (active) | migration z above 2; enough cells | 1.48 | 4936
CALM3 | 0.08 | under 3300 nuclei; migration not judged | 0.82 | 3170
PI4K2B | 0.08 | migration z between -2 and 2; enough cells | 0.82 | 5714
MSLNL | -0.17 | migration z between -2 and 2; enough cells | 0.84 | 4908
UBE2V2 | 0.99 | migration z between -2 and 2; enough cells | 0.99 | 5082
TSEN54 | -0.97 | migration z between -2 and 2; enough cells | 0.64 | 5818
TNFSF13 | -2.15 (active) | migration z below -2; enough cells | 0.33 | 5092
RNF34 | -0.78 | migration z between -2 and 2; enough cells | 0.66 | 5538
HECTD1 | 0.47 | migration z between -2 and 2; enough cells | 0.89 | 5220
PPP5C | 0.6 | migration z between -2 and 2; enough cells | 0.92 | 4422
OR5B12 | -0.5 | migration z between -2 and 2; enough cells | 0.76 | 7166
PCDHB15 | -0.26 | migration z between -2 and 2; enough cells | 0.82 | 5044
ZNF350 | -1.09 | migration z between -2 and 2; enough cells | 0.6 | 5228
CCDC162P | 0.62 | migration z between -2 and 2; enough cells | 1.04 | 6168
CREBL2 | 0.7 | migration z between -2 and 2; enough cells | 0.94 | 5426
MCF2L | 1.11 | migration z between -2 and 2; enough cells | 1.17 | 5329
POF1B | -1.51 | migration z between -2 and 2; enough cells | 0.49 | 6310
OR6M1 | -0.28 | migration z between -2 and 2; enough cells | 0.81 | 7012
KYNU | 0.83 | migration z between -2 and 2; enough cells | 0.96 | 5256
NUDT15 | 0.11 | migration z between -2 and 2; enough cells | 0.82 | 4473
CACTIN | -0.8 | migration z between -2 and 2; enough cells | 0.68 | 6075
AQP6 | -1.24 | migration z between -2 and 2; enough cells | 0.57 | 6628
LRRC74A | 0.22 | migration z between -2 and 2; enough cells | 0.94 | 6330
GRIK4 | -1.25 | migration z between -2 and 2; enough cells | 0.56 | 5362
GUCY2F | 0.86 | migration z between -2 and 2; enough cells | 0.97 | 5764
ZNF121 | 0.46 | migration z between -2 and 2; enough cells | 1 | 7528
TPMT | -1.08 | migration z between -2 and 2; enough cells | 0.6 | 5631
CATSPER1 | 0.57 | migration z between -2 and 2; enough cells | 0.92 | 5706
PSRC1 | 0.19 | migration z between -2 and 2; enough cells | 0.94 | 6014
MPV17 | -1.23 | migration z between -2 and 2; enough cells | 0.57 | 5445
ISCU | 0.1 | migration z between -2 and 2; enough cells | 0.92 | 5436
TCAF2 | -1.23 | migration z between -2 and 2; enough cells | 0.56 | 6434
HTR3E | -0.16 | migration z between -2 and 2; enough cells | 0.84 | 6434
HCP5 | -0.21 | migration z between -2 and 2; enough cells | 0.82 | 5424
MCM4 | -0.52 | migration z between -2 and 2; enough cells | 0.7 | 5375
SAXO2 | 1.7 | migration z between -2 and 2; enough cells | 1.33 | 6578
THAP7 | -1.48 | migration z between -2 and 2; enough cells | 0.5 | 5009
RPS6 | 0.46 | migration z between -2 and 2; enough cells | 1 | 3712
COX19 | 1.02 | migration z between -2 and 2; enough cells | 1.15 | 6786
ANKRD20A1 | 0.92 | migration z between -2 and 2; enough cells | 1.12 | 6186
AFMID | 0.64 | migration z between -2 and 2; enough cells | 1.05 | 5840
SEC61A2 | 0.24 | migration z between -2 and 2; enough cells | 0.94 | 5834
XPNPEP3 | -0.39 | migration z between -2 and 2; enough cells | 0.73 | 5214
CHTF18 | -0.16 | migration z between -2 and 2; enough cells | 0.84 | 5072
ARHGAP42 | 1.9 | migration z between -2 and 2; enough cells | 1.38 | 5070
RASA3 | 0.44 | migration z between -2 and 2; enough cells | 0.89 | 5334
OR5D18 | 0.9 | migration z between -2 and 2; enough cells | 1.12 | 5745
LHFPL4 | 0.5 | migration z between -2 and 2; enough cells | 1.02 | 5770
INSIG1 | -0.82 | migration z between -2 and 2; enough cells | 0.67 | 5732
ATF6B | 1.79 | migration z between -2 and 2; enough cells | 1.15 | 4770
TSC1 | 0.27 | migration z between -2 and 2; enough cells | 0.96 | 6952
APLP2 | -0.96 | migration z between -2 and 2; enough cells | 0.64 | 7294
CLDN4 | -0.7 | migration z between -2 and 2; enough cells | 0.67 | 5631
ARF3 | 1.84 | migration z between -2 and 2; enough cells | 1.16 | 5536
BLID | -0.04 | migration z between -2 and 2; enough cells | 0.88 | 5337
GPATCH8 | -0.94 | migration z between -2 and 2; enough cells | 0.64 | 6131
CYB561D1 | -1.23 | migration z between -2 and 2; enough cells | 0.57 | 4879
UGT1A5 | 0.29 | migration z between -2 and 2; enough cells | 0.86 | 5452
NCAPH2 | -0.92 | migration z between -2 and 2; enough cells | 0.64 | 4672
TP53BP2 | -0.34 | migration z between -2 and 2; enough cells | 0.8 | 3730
MT1G | 1.75 | migration z between -2 and 2; enough cells | 1.34 | 5308
ZC3H7B | 0.58 | migration z between -2 and 2; enough cells | 1.04 | 4710
DAAM1 | -0.82 | migration z between -2 and 2; enough cells | 0.66 | 6719
CKMT2 | -2.02 (active) | migration z below -2; enough cells | 0.42 | 4722
PCDH11Y | 0.27 | migration z between -2 and 2; enough cells | 0.96 | 6048
PKNOX1 | 0.44 | migration z between -2 and 2; enough cells | 0.89 | 5567
H2BC14 | 0.88 | migration z between -2 and 2; enough cells | 1.12 | 6030
SERPINH1 | -0.24 | migration z between -2 and 2; enough cells | 0.82 | 5302
RASGRF2 | 1.31 | migration z between -2 and 2; enough cells | 1.23 | 6162
SYT11 | 0.29 | migration z between -2 and 2; enough cells | 0.96 | 6125
FURIN | 0.24 | migration z between -2 and 2; enough cells | 0.85 | 4118

Copied from the listing for reference:
target gene | migration robust z-score | migration class with cell-count check | migration relative to mock | nuclei per well, duplicate mean
APLP2 | -0.96 | migration z between -2 and 2; enough cells | 0.64 | 7294
CLDN4 | -0.7 | migration z between -2 and 2; enough cells | 0.67 | 5631
ARF3 | 1.84 | migration z between -2 and 2; enough cells | 1.16 | 5536
BLID | -0.04 | migration z between -2 and 2; enough cells | 0.88 | 5337
GPATCH8 | -0.94 | migration z between -2 and 2; enough cells | 0.64 | 6131
CYB561D1 | -1.23 | migration z between -2 and 2; enough cells | 0.57 | 4879
UGT1A5 | 0.29 | migration z between -2 and 2; enough cells | 0.86 | 5452
NCAPH2 | -0.92 | migration z between -2 and 2; enough cells | 0.64 | 4672
TP53BP2 | -0.34 | migration z between -2 and 2; enough cells | 0.8 | 3730
MT1G | 1.75 | migration z between -2 and 2; enough cells | 1.34 | 5308
ZC3H7B | 0.58 | migration z between -2 and 2; enough cells | 1.04 | 4710
